One may read the IC50 as the point on the concentration scale where inhibition reaches its midpoint.

We go through 1 compound from PMC10216605, “Developing In Vitro Models to Define the Role of Direct Mitochondrial Toxicity in Frequently Reported Drug-Induced Rhabdomyolysis” (Biomedicines, 2023).

A short description of series [1]: FAERS analysis of reported rhabdomyolysis cases per suspect drug. The note with it: rhabdomyolysis with suspected drug vs all other drugs in FAERS.
The subject of series [2] is primary human skeletal muscle-derived cells (HSKMDC). Description: cells. The format is cell-based. The conditions noted are these: 2 h exposure; for IC50-LDH gal/ IC50-ATP al: galactose media; for IC50: Homo sapiens, Myotube. Here is the method:
HSKMDC myoblasts were collected by trypsinisation using trypsin-EDTA (0.05%) upon reaching 50% confluence and seeded into collagen-coated wells, at a density of 20,000 cells/100 μL/well (96 well plates) and 25,000 cells/100 μL/well (XF 96-well cell culture microplates). After 24 h, the cells were washed twice with 1× PBS (-/-), and growth media were replaced with differentiation medium containing DMEM low-glucose media (glucose 5 mM), L-glutamine (4 mM), sodium pyruvate (1 mM) supplemented with 2% (v/v) horse serum, and (10 nM) human insulin. The medium was refreshed every 48 h for 5 days.
On the day of the assay, the media on the differentiated myotubes were replaced with either serum-free high-glucose (DMEM, 25 mM of glucose, 4 mM of L-glutamine, 1 mM of sodium pyruvate, and 5 mM of HEPES) or serum-free galactose (DMEM, 10 mM of galactose, 6 mM of L-glutamine, 1 mM of sodium pyruvate, and 5 mM of HEPES) media (100 µL) for 2 h (37 °C, 5% CO2). The glucose and galactose media were removed and replaced with drug-dosing solutions in either glucose or galactose media as appropriate, before incubation (2 h, 37 °C, 5% CO2). […] Vehicle control was included in each experiment.
Cytotoxicity was detected using a lactate dehydrogenase (LDH) assay kit. Briefly, according to the manufacturers’ instructions, 25 µL of the supernatant and 10 µL of cell lysate were incubated with 50 µL of LDH reagent for 30 min in the dark. Samples were read at 490 nm using a plate reader.

SMILES strings stand for the structures. Read-outs that look alike come from different tables or passages of the source.

Consider `CC(C)OC(=O)C(C)(C)Oc1ccc(C(=O)c2ccc(Cl)cc2)cc1` [Fenofibrate], for which the “ROR (reported odds ratio)” value in series [1] is 3.8. Moreover, the “IC50-LDH gal/ IC50-ATP al” value in series [2] is on record as above 30.9; in series [2] (listed as fenofibrate), at least 2. For the same compound, the IC50 in series [2] (galactose serum-free media, read-out: LDH IC50 Galactose) was above 300 µM; in series [2] (glucose serum-free media, read-out: LDH IC50 Glucose), above 300 µM.
